The supplement of paper PMC10849652
Some of the results follow.

Amino acid sequences for entries named in this document (tags omitted). A change or cut given only in a name is not applied to a line headed by its entry.
UniProt Q13547, whole entry, looked up: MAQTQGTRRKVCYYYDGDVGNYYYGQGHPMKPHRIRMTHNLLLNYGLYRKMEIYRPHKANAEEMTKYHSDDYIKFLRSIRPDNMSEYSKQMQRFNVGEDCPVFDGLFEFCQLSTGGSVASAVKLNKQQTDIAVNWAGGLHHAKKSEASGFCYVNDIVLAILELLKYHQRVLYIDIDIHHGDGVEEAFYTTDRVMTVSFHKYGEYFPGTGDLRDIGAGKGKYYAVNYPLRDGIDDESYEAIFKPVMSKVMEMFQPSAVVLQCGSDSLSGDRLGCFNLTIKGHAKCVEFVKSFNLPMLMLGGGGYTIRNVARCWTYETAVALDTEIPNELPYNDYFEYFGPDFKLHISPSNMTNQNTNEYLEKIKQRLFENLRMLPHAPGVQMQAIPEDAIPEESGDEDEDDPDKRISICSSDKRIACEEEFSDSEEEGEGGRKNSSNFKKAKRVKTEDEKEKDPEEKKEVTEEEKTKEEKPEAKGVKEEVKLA
UniProt Q99871: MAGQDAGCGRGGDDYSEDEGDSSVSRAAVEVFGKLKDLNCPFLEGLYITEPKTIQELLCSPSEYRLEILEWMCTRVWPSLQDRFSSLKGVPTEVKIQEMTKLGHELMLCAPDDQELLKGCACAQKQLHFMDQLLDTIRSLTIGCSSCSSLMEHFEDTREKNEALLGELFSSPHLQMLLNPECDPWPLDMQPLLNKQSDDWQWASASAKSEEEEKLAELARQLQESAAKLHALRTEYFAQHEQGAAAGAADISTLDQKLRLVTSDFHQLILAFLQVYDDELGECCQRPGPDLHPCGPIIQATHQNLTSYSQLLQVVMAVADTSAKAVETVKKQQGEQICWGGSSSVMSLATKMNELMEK
UniProt P09105: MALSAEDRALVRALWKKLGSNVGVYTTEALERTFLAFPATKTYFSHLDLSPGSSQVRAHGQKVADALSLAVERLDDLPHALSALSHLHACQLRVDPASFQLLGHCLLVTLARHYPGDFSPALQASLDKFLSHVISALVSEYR
UniProt P02008: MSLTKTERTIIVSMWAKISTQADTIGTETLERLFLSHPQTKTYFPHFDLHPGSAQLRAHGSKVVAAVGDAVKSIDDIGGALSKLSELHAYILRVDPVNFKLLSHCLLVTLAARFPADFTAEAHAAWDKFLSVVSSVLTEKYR
UniProt P51610: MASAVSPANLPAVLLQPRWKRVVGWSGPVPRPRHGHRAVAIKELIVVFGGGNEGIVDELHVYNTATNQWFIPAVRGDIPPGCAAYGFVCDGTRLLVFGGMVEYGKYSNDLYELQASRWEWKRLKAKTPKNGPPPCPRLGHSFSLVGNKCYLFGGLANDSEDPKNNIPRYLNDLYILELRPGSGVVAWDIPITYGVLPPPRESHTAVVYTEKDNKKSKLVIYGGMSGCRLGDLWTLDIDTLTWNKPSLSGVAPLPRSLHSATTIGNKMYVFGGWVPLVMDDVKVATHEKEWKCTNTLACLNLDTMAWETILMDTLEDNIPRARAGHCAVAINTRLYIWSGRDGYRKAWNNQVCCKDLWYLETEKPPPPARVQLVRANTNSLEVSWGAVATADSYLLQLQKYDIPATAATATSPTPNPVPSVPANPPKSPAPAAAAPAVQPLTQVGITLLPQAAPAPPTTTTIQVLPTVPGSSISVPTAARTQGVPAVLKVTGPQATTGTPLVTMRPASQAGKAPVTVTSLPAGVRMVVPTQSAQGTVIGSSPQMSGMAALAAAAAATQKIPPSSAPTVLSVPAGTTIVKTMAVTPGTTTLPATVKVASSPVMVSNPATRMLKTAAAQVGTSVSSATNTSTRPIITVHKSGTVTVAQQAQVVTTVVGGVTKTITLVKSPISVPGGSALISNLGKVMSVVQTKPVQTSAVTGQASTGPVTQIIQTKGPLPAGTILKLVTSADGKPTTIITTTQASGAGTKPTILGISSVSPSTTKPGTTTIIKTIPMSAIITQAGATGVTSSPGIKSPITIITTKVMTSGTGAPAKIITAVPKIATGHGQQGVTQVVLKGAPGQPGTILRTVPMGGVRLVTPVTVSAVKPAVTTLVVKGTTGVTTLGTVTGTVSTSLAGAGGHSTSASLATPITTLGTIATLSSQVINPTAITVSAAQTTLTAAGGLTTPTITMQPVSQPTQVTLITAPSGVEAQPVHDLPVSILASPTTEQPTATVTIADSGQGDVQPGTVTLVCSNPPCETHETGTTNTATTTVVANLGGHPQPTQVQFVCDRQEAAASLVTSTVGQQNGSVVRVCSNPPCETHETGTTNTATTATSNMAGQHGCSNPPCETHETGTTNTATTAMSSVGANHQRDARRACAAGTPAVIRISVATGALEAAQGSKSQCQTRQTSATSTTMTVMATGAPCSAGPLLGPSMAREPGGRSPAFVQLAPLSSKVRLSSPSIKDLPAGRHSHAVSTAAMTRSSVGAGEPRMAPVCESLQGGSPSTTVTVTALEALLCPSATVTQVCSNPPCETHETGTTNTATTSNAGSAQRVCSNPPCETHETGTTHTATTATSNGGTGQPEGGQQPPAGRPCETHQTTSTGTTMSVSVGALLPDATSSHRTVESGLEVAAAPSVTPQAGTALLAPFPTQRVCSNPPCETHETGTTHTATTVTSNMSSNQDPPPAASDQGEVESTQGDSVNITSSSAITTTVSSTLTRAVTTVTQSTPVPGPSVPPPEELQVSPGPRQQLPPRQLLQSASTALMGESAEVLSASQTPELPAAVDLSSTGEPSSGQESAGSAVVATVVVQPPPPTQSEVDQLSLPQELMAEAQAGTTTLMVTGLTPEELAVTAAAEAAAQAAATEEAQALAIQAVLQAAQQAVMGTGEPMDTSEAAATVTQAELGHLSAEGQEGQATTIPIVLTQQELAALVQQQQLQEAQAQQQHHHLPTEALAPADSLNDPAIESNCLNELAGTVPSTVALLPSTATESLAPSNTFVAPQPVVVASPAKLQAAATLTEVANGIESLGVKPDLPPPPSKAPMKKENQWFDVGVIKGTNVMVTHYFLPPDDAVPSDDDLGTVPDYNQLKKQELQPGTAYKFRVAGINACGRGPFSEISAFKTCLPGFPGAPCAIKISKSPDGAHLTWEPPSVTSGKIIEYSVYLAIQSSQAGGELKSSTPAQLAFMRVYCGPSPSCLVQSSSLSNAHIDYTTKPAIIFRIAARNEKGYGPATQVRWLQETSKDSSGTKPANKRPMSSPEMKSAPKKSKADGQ
UniProt P29084: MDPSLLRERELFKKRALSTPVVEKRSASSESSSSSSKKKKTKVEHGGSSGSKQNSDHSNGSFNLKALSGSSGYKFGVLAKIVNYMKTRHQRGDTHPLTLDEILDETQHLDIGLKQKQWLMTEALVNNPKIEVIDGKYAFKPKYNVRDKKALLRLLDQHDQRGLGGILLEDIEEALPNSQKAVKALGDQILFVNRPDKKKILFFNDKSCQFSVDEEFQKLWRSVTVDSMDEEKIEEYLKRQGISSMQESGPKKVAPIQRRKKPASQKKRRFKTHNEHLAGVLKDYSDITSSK
UniProt P29083: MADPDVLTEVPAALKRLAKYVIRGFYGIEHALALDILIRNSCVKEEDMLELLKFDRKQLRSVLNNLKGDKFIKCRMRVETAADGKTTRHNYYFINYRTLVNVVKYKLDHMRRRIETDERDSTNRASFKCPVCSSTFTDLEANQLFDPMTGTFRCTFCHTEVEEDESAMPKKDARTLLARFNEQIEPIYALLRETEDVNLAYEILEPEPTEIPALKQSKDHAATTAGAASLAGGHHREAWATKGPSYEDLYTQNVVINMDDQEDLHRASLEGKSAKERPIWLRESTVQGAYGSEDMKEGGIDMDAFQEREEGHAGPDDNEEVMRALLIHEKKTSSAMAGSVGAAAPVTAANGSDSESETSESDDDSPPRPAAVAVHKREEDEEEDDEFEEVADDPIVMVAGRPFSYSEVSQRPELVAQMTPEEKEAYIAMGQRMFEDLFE
UniProt P08236: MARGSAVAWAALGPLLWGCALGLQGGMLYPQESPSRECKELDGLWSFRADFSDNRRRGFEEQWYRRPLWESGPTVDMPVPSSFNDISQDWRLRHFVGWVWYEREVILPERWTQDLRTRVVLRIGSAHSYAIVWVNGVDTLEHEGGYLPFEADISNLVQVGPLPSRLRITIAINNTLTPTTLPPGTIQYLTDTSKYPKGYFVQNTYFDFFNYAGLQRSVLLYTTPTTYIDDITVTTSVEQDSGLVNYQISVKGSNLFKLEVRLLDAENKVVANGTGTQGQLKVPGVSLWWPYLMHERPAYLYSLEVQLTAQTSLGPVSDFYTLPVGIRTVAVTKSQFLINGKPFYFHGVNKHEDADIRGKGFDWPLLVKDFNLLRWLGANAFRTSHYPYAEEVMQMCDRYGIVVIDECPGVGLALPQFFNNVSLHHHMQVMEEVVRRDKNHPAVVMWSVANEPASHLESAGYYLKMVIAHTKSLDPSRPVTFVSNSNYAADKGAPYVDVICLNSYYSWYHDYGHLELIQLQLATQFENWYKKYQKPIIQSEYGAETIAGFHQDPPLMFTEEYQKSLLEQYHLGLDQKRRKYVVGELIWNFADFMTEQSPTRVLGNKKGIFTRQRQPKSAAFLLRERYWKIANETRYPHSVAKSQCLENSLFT
UniProt Q13889: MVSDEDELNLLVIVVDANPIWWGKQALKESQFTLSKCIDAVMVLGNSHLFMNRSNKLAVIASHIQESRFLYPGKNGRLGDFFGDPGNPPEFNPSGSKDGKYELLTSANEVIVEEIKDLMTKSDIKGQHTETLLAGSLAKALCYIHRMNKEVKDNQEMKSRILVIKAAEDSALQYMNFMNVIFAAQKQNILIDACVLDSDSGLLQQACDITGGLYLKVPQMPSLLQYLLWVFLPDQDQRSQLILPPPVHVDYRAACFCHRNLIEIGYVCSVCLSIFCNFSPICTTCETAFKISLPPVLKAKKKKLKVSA
UniProt P56524: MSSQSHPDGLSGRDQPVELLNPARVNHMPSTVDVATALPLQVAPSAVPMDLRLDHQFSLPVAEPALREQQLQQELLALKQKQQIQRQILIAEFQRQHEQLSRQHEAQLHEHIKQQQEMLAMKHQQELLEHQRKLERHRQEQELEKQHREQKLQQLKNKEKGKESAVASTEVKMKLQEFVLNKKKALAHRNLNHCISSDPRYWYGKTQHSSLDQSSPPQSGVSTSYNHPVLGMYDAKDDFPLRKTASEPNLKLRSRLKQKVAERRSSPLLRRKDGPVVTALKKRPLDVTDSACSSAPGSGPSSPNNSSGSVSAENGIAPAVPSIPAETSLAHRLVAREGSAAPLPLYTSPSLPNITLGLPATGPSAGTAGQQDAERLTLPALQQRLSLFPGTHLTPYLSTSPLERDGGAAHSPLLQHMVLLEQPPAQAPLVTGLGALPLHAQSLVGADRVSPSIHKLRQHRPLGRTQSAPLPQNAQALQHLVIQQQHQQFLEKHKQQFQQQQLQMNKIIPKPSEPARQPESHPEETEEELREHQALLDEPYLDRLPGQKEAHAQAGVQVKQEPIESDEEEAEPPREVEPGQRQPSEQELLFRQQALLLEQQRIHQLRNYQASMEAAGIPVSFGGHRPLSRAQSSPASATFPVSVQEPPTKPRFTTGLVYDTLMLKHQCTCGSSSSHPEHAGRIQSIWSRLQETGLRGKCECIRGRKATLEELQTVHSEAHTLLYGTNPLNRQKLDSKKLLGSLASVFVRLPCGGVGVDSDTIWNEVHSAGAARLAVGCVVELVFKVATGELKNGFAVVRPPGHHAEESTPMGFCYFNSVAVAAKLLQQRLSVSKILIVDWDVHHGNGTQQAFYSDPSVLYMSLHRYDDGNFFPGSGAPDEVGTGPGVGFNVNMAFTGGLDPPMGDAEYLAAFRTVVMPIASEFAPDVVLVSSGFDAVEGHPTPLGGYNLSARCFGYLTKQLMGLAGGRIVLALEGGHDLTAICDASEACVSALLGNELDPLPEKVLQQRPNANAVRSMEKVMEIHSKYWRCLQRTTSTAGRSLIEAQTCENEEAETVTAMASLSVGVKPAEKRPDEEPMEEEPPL
UniProt Q16774: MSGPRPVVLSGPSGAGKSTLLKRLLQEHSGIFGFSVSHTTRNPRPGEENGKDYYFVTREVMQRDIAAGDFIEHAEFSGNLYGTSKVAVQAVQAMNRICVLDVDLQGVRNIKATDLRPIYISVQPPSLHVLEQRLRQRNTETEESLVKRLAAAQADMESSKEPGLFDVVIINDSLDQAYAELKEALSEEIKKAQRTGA
UniProt O14929: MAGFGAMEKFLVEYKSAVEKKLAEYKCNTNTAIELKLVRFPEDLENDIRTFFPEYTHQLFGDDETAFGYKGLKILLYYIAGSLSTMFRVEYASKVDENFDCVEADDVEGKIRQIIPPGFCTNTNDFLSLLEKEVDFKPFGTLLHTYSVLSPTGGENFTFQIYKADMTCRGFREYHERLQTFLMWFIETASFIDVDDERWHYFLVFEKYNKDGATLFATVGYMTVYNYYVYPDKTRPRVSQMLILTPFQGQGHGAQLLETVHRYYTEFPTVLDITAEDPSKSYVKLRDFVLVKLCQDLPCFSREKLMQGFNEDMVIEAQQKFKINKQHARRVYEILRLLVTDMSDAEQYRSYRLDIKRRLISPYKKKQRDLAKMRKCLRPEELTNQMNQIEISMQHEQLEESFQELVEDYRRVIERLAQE

How the values were obtained:
Test in all cases: log2 fold change, soluble protein after heating vs DMSO (PISA); higher = thermal stabilisation; K562 lysate, 10 uM; active = over 0.2 and 3.5 SD of the protein, either way, in both replicates (recomputed)
alvocidib = compound: CN1CC[C@H](c2c(O)cc(O)c3c(=O)cc(-c4ccccc4Cl)oc23)[C@H](O)C1 [alvocidib]
Procedure, shortened: (§1)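 Quantification was by TMTpro 16plex LC-MS/MS with equalised channel sums, applied to the supernatant after 21,000xg for 90 min. Samples were crude K562 extract at 1 mg/mL protein in PBS pH 7.4 with 1 mM MgCl2, treated with 10 μM compound for 30 min, heated for 3 min across 48°C-58°C, pooled and brought to 0.5% NP-40 at 4°C. Values are log-two fold changes in thermal stability relative to solvent controls, from duplicates.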

Tubastatin A = compound: CN1CCc2c(c3ccccc3n2Cc2ccc(C(=O)NO)cc2)C1 [Tubastatin A]
Procedure, shortened: as §1

[1] = compound: CNC(=O)C1=CC=CC=C1NC2=NC(=NC=C2Cl)NC3=C(C=C(C=C3)N4CCOCC4)OC
Procedure, shortened: as §1

defactinib = compound: CNC(=O)c1ccc(Nc2ncc(C(F)(F)F)c(NCc3nccnc3N(C)S(C)(=O)=O)n2)cc1 [defactinib]
Procedure, shortened: as §1

[2] = compound: CNc1nc(-c2ccc3c(N)n[nH]c3c2)cc(N2C[C@@H](C(=O)NC3CCCCC3)CC[C@H]2C)n1
Procedure, shortened: as §1

encorafenib = compound: COC(=O)N[C@@H](C)CNc1nccc(-c2cn(C(C)C)nc2-c2cc(Cl)cc(NS(C)(=O)=O)c2F)n1 [encorafenib]
Procedure, shortened: as §1

[3] = compound: COC(=O)[C@H](CCSC)NC(=O)C1=C(C=C(C=C1)NC[C@H](CS)N)C2=CC=CC=C2
Procedure, shortened: as §1

alisertib = compound: COc1cc(Nc2ncc3c(n2)-c2ccc(Cl)cc2C(c2c(F)cccc2OC)=NC3)ccc1C(=O)O [alisertib]
Procedure, shortened: as §1

[4] = compound: COc1cc2nc(-c3cc(F)ccc3O)nc(N[C@@H]3CNC[C@H]3C(C)(C)O)c2cc1OC
Procedure, shortened: as §1

gefitinib = compound: COc1cc2ncnc(Nc3ccc(F)c(Cl)c3)c2cc1OCCCN1CCOCC1 [gefitinib]
Procedure, shortened: as §1

Row | Target | log2 fold change (alvocidib) | log2 fold change (Tubastatin A) | log2 fold change [1] | log2 fold change (defactinib) | log2 fold change [2] | log2 fold change (encorafenib) | log2 fold change [3] | log2 fold change (alisertib) | log2 fold change [4] | log2 fold change (gefitinib)
1 | HAUS3 (UniProt Q68CZ6) | inactive: -0.022 | inactive: -0.159 | inactive: 0.043 | inactive: -0.023 | inactive: -0.021 | inactive: 0.026 | inactive: 0.065 | inactive: 0.014 | inactive: 0.003 | inactive: -0.011
2 | GRB10 (UniProt Q13322) | inactive: -0.061 | inactive: -0.226 | inactive: 0.015 | inactive: 0.003 | inactive: 0.02 | inactive: 0.065 | inactive: 0.01 | inactive: 0 | inactive: -0.02 | inactive: -0.043
3 | HDAC1 (UniProt Q13547) | inactive: 0.003 | inactive: -0.027 | inactive: -0.015 | inactive: 0.014 | inactive: -0.012 | inactive: 0.006 | inactive: 0.04 | inactive: 0.017 | inactive: -0.031 | inactive: 0.004
4 | HAGH (UniProt Q16775) | inactive: -0.049 | inactive: 0.057 | inactive: 0.021 | inactive: 0.032 | inactive: 0.094 | inactive: -0.013 | inactive: -0.023 | inactive: 0.042 | inactive: 0.045 | inactive: 0.011
5 | HBS1L (UniProt Q9Y450) | inactive: -0.03 | inactive: -0.114 | inactive: 0.037 | inactive: -0.018 | inactive: -0.009 | inactive: 0.012 | inactive: 0.107 | inactive: 0.019 | inactive: -0.01 | inactive: -0.018
6 | HEATR5B (UniProt Q9P2D3) | inactive: 0.001 | inactive: 0.015 | inactive: 0.02 | inactive: -0.002 | inactive: 0.01 | inactive: 0.013 | inactive: -0.009 | inactive: -0.022 | inactive: 0.005 | inactive: 0.007
7 | HAUS7 isoform 2 (UniProt Q99871) | inactive: 0.001 | inactive: -0.128 | inactive: 0.021 | inactive: -0.045 | inactive: -0.021 | inactive: 0.024 | inactive: 0.099 | inactive: 0.031 | inactive: -0.135 | inactive: -0.043
8 | GRSF1 (UniProt Q12849) | inactive: -0.011 | inactive: -0.008 | inactive: -0.033 | inactive: -0.001 | inactive: 0.009 | inactive: 0.011 | inactive: -0.001 | inactive: -0.019 | inactive: -0.064 | inactive: 0.021
9 | HBQ1 (UniProt P09105) | inactive: 0.03 | inactive: 0.063 | inactive: 0.069 | inactive: 0.123 | inactive: -0.039 | inactive: 0.034 | inactive: -0.027 | inactive: 0.012 | inactive: -0.035 | inactive: -0.217
10 | HDAC5 isoform 3 (UniProt Q9UQL6) | inactive: -0.005 | inactive: -0.043 | inactive: 0.043 | inactive: -0.093 | inactive: 0.165 | inactive: 0.053 | inactive: 0.012 | inactive: -0.042 | inactive: -0.067 | inactive: -0.023
11 | HBA1 (UniProt P69905) | inactive: 0.145 | inactive: 0.074 | inactive: 0.032 | inactive: 0.122 | inactive: 0.031 | inactive: 0.019 | inactive: -0.042 | inactive: 0.045 | inactive: -0.028 | inactive: -0.16
12 | GRK6 isoform 2 (UniProt P43250) | inactive: -0.05 | inactive: 0.074 | inactive: 0.007 | inactive: 0.034 | inactive: 0.148 | inactive: -0.082 | inactive: 0.043 | inactive: -0.04 | inactive: -0.015 | inactive: 0.064
13 | HBZ (UniProt P02008) | inactive: 0.087 | inactive: 0.059 | inactive: 0.04 | inactive: 0.107 | inactive: 0.016 | inactive: 0.042 | inactive: -0.029 | inactive: 0.011 | inactive: -0.039 | inactive: -0.18
14 | H1FX (UniProt Q92522) | inactive: 0.005 | inactive: 0.015 | inactive: -0.007 | inactive: 0.002 | inactive: -0.084 | inactive: 0.028 | inactive: 0.041 | inactive: 0.016 | inactive: -0.017 | inactive: -0.004
15 | HCFC1 isoform 4 (UniProt P51610) | inactive: 0.013 | inactive: 0.009 | inactive: 0.007 | inactive: 0.004 | inactive: 0.03 | inactive: -0.012 | inactive: -0.039 | inactive: -0.001 | inactive: 0.009 | inactive: -0.026
16 | GTF2E2 (UniProt P29084) | inactive: -0.005 | inactive: -0.074 | inactive: -0.011 | inactive: -0.061 | inactive: 0.003 | inactive: 0.025 | inactive: -0.106 | inactive: -0.054 | inactive: -0.017 | inactive: 0.021

Row | Target | log2 fold change (alvocidib) | log2 fold change (Tubastatin A) | log2 fold change [1] | log2 fold change (defactinib) | log2 fold change [2] | log2 fold change (encorafenib) | log2 fold change [3] | log2 fold change (alisertib) | log2 fold change [4] | log2 fold change (gefitinib)
17 | H2AFY (UniProt O75367) | inactive: -0.034 | inactive: 0.079 | inactive: -0.026 | inactive: 0.106 | active: 0.329 | inactive: 0.094 | inactive: 0.014 | inactive: 0.001 | inactive: 0 | inactive: 0
18 | GYPA, A0A2R8Y7F9 | inactive: -0.218 |  |  |  |  |  |  |  |  | 
19 | GSE1 (UniProt Q14687) | inactive: -0.032 | inactive: -0.155 | inactive: 0.014 | inactive: -0.006 | inactive: -0.001 | inactive: 0.017 | inactive: 0.05 | inactive: -0.017 | inactive: 0.027 | inactive: 0.013
20 | GTF2F2 (UniProt P13984) | inactive: 0 | inactive: 0.046 | inactive: 0.007 | inactive: -0.006 | inactive: 0.059 | inactive: 0.014 | inactive: -0.039 | inactive: 0.015 | inactive: 0.011 | inactive: -0.017
21 | GTF2E1 (UniProt P29083) | inactive: -0.042 | inactive: 0.039 | inactive: 0.03 | inactive: 0.022 | inactive: 0.029 | inactive: 0.031 | inactive: -0.016 | inactive: 0.033 | inactive: -0.008 | inactive: 0.004
22 | H4C1 (UniProt P62805) | inactive: -0.101 | active: 0.373 | inactive: -0.023 | inactive: -0.02 | active: 0.569 | inactive: 0.038 | inactive: 0.051 | inactive: 0.018 | inactive: 0.012 | inactive: -0.008
23 | HADHB (UniProt P55084) | inactive: -0.046 | inactive: 0.033 | inactive: 0.081 | inactive: -0.065 | inactive: -0.03 | inactive: -0.058 | inactive: 0.072 | inactive: -0.019 | inactive: -0.019 | inactive: 0.022
24 | GUSB (UniProt P08236) | inactive: -0.278 | inactive: 0.022 | inactive: 0.017 | inactive: 0.015 | inactive: -0.027 | inactive: 0.089 | inactive: -0.019 | inactive: 0.089 | inactive: 0.071 | inactive: -0.049
25 | GTF2H3 (UniProt Q13889) | inactive: 0.028 | inactive: -0.011 | inactive: 0 | inactive: 0.001 | inactive: 0.07 | inactive: 0.071 | inactive: -0.115 | inactive: 0.022 | inactive: 0.008 | inactive: -0.075
26 | HCCS (UniProt P53701) | inactive: 0.001 | inactive: -0.032 | inactive: -0.033 | inactive: -0.015 | inactive: -0.017 | inactive: -0.02 | inactive: 0 | inactive: 0.031 | inactive: -0.045 | inactive: 0.04
27 | GYS1 (UniProt P13807) | inactive: -0.033 | inactive: -0.101 | inactive: 0.02 | inactive: -0.069 | inactive: 0.016 | inactive: 0.007 | inactive: 0.028 | inactive: -0.018 | inactive: 0.003 | inactive: 0.005
28 | HDAC4 (UniProt P56524) | inactive: -0.1 | inactive: 0.039 | inactive: -0.037 | inactive: 0.004 | inactive: 0.055 | inactive: 0.036 | inactive: -0.03 | inactive: 0.021 | inactive: 0.054 | inactive: -0.151
29 | GUK1 isoform 2 (UniProt Q16774) | inactive: -0.026 | inactive: 0.018 | inactive: 0.039 | inactive: 0.024 | inactive: -0.055 | inactive: 0.013 | inactive: 0.004 | inactive: 0.033 | inactive: -0.005 | inactive: -0.042
30 | GSN (UniProt P06396) | inactive: -0.007 | inactive: -0.011 | inactive: -0.002 | inactive: 0.014 | inactive: 0.089 | inactive: -0.057 | inactive: 0.073 | inactive: 0.006 | inactive: -0.029 | inactive: -0.001
31 | HAT1 (UniProt O14929) | inactive: -0.027 | inactive: -0.043 | inactive: -0.011 | inactive: 0.027 | inactive: 0.008 | inactive: 0.008 | inactive: 0.029 | inactive: -0.018 | inactive: 0.012 | inactive: 0.014

An excerpt from above, reduced to log2 fold change (alisertib) and log2 fold change (alvocidib).
Row | Target | log2 fold change (alisertib) | log2 fold change (alvocidib)
19 | GSE1 (UniProt Q14687) | inactive: -0.017 | inactive: -0.032
20 | GTF2F2 (UniProt P13984) | inactive: 0.015 | inactive: 0
